Experimental data: patent US20220402914A1, “Tryptoline-Based Benzothiazoles and their use as Antibiotics and Antibiotic Resistance-Modifying Agents” (The Regents of the University of Colorado, a body corporate, priority 2019, published 2022)
At least one read-out could not be matched to a standard name with certainty.

System: MRSA ATCC BAA-44
Assay: Minimum re-sensitizing concentration (MRC) in the presence of cefazolin
Format: cell-based, Staphylococcus aureus
Details: MRSA BAA-44 in combination with cefazolin (8 μg/mL)
Method: RMA activity of the analogues was tested by assessing their abilities to sensitize MRSA to the antibiotic cefazolin (a first-generation cephalosporin). The well characterized strain MRSA ATCC BAA-44 was tested as previously described. […] The minimal inhibitory concentration (MIC), or the lowest concentration at which S. aureus is considered susceptible to an antibacterial, was determined by the standard broth microdilution method detailed in the CLSI handbook. RMA activity was compared by the ratio of MIC/MRC. The half growth inhibitory concentration (GI50) of each analogue against HeLa cells was determined as previously described. […] The luminescence of each sample was recorded in an Envision Multilabel Plate Reader (Perkin Elmer). Results of MICs and MRCs were confirmed by testing in triplicate. The GI50 assay was performed in duplicate.

SMILES	MRC [µg/mL]
COC(=O)C1Cc2c([nH]c3ccc(Cl)cc23)CN1c1nc2ccc(Cl)cc2s1 (centres unmarked) [Compound 4m, Methyl 6-chloro-2-(6-chloro-1,3-benzothiazol-2-yl)-2,3,4,9-tetrahydro-1H-pyrido[3,4-b]indole-3-carboxylate]	>64
FC(F)(F)c1cccc(NC(=S)N2CCc3c([nH]c4ccc(Cl)cc34)C2)c1 [Compound 5c, 6-Chloro-N-[3-(trifluoromethyl)phenyl]-1,3,4,9-tetrahydro-2H-pyrido[3,4-b]indole-2-carbothioamide]	1
